# Laboratory results taken from US5002969A, “Pharmaceutical compositions containing titanocene complexes and use of these complexes as cytostatic agents” (priority 1985, dated 1991).
# At least one compound was matched to its structure with a doubt left.
# Key:
# solid Sarcoma 180 = test: Activity against solid Sarcoma 180
# ascitic Sarcoma 180 = test: Activity against ascitic Sarcoma 180; conditions: for Survivors/Animals Treated: day 80
Compound,Toxicity Deaths/Animals Treated (solid Sarcoma 180; 1 × 60 mg/kg),Toxicity Deaths/Animals Treated (solid Sarcoma 180; 1 × 100 mg/kg),Toxicity Deaths/Animals Treated (solid Sarcoma 180; 3 × 60 mg/kg),Toxicity Deaths/Animals Treated (ascitic Sarcoma 180; 1 × 60 mg/kg),Survivors/Animals Treated (ascitic Sarcoma 180; 1 × 60 mg/kg),"MST (mean survival time) (ascitic Sarcoma 180; 1 × 60 mg/kg, mean (range))",Toxicity Deaths/Animals Treated (ascitic Sarcoma 180; 1 × 100 mg/kg),Toxicity Deaths/Animals Treated (solid Sarcoma 180; 1 × 80 mg/kg),Toxicity Deaths/Animals Treated (solid Sarcoma 180; 1 × 120 mg/kg),Toxicity Deaths/Animals Treated (solid Sarcoma 180; 3 × 100 mg/kg),Toxicity Deaths/Animals Treated (ascitic Sarcoma 180; 1 × 80 mg/kg),Toxicity Deaths/Animals Treated (ascitic Sarcoma 180; 1 × 120 mg/kg),Toxicity Deaths/Animals Treated (solid Sarcoma 180; 1 × 220 mg/kg),Toxicity Deaths/Animals Treated (solid Sarcoma 180; 1 × 320 mg/kg),Toxicity Deaths/Animals Treated (solid Sarcoma 180; 3 × 200 mg/kg),Toxicity Deaths/Animals Treated (ascitic Sarcoma 180; 1 × 220 mg/kg),Survivors/Animals Treated (ascitic Sarcoma 180; 1 × 220 mg/kg),Toxicity Deaths/Animals Treated (ascitic Sarcoma 180; 1 × 320 mg/kg)
"Cl.Cl.Nc1ccc([S][Ti]([S]c2ccc(N)cc2)([CH]2C=CC=C2)[CH]2C=CC=C2)cc1 [Compound 1, Bis(p-aminothiophenolato)bis(.eta.^5 -cyclopentadienyl)titanium(IV)-dihydrochloride]",-/5,-/5,-/5,-/5,-/5,"19,0 (15.25) d",- /5,,,,,,,,,,,
"O=C(O)C=CC(=O)[O][Ti+2][O]C(=O)C=CC(=O)O.c1cc[cH-]c1.c1cc[cH-]c1 [Compound 3, Bis(hydrogenmaleinato)bis(.eta.^5 -cyclopentadienyl)titanium(IV)]",,,-/5,,,,,-/5,-/5,-/5,-/5,-/5,,,,,,
"O=C([O][Ti+2][O]C(=O)C(Cl)(Cl)Cl)C(Cl)(Cl)Cl.c1cc[cH-]c1.c1cc[cH-]c1 [Compound 4, Bis(trichloroacetato)bis(.eta.^5 -cyclopentadienyl)titanium(IV)]",,,,,,,,,,,,,-/5,-/5,-/5,-/5,-/5,-/5
